Results on one substance are retold here after PMC6883062.

Sequences of proteins named here, by UniProt entry; tags and fusion partners are left off.
UniProt O35800: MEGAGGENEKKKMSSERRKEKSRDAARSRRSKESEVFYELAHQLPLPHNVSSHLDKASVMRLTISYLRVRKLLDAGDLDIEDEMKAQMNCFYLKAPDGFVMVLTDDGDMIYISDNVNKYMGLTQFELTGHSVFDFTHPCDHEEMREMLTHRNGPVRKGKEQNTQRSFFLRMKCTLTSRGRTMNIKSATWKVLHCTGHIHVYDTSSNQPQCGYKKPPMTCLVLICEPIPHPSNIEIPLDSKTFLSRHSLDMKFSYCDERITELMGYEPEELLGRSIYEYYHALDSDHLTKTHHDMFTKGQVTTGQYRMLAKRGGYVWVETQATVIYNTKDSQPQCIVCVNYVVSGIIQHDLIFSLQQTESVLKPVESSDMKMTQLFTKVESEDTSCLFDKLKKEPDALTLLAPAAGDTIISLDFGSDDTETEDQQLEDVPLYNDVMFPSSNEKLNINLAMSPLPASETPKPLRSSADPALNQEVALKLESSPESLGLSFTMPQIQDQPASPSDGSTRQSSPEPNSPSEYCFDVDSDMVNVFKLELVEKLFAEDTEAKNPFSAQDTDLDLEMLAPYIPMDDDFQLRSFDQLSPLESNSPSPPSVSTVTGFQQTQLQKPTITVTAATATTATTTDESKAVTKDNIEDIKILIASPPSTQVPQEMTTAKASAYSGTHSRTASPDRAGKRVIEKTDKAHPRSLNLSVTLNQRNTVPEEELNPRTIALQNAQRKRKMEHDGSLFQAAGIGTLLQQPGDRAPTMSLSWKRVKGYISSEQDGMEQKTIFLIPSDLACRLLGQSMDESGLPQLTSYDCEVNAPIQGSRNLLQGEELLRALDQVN

These are yes or no findings as the source states them, for the method shown. Binding seen in cells or lysates may run through a third protein. Some results given as binding are weak or reduced against the parent protein; the word gives no strength.

For this assay, the target named is T1, β-catenin (rat (endogenous in NRCM)) (UniProt Q9WU82).
T1 sequence: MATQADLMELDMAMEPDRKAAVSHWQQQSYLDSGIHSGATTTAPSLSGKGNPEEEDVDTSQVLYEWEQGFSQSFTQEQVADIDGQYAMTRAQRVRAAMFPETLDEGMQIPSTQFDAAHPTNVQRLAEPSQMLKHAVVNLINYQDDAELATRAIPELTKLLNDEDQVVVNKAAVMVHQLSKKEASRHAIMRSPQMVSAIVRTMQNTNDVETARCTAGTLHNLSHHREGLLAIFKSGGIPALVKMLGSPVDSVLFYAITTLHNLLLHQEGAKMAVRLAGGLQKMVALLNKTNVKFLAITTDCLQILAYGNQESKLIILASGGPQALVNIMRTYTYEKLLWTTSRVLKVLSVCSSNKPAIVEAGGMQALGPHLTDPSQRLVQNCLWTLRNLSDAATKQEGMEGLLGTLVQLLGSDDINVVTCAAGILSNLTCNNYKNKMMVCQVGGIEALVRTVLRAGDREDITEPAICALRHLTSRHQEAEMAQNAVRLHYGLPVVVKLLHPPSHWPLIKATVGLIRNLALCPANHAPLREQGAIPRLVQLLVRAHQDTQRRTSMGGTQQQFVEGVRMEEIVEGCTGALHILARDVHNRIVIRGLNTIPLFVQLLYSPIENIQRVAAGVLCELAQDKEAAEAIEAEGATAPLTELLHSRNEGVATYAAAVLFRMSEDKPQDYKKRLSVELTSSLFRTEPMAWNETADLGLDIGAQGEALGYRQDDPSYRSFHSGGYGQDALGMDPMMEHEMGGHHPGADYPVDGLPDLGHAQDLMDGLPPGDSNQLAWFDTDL
Description: co-IP; cultured cells under hypoxia lysed in IP lysis buffer with 1% PMSF; antibodies and Protein A/G agarose beads overnight at 4 °C; five washes; western blot; forward and reverse co-IPs. In general terms: Immunoblotting shows a protein as a band on a membrane.

Hif-1α (from UniProt O35800 1-825): the binding entry is recorded as “binds”.
